Publication PMC11513148

Chains of the proteins cited; added tags and fusions are not shown. Lines headed by an entry give the natural chain unless they say otherwise; changes in a name come on top.
UniProt Q06144: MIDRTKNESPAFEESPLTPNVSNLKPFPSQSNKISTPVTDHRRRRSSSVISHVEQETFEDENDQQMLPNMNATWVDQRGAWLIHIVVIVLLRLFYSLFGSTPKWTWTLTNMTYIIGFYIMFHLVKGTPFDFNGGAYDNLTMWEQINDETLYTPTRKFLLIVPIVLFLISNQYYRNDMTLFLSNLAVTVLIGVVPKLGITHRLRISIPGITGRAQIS

Target: FLAG-Orm2^KR (non-ubiquitinatable Orm2 mutant) (S. cerevisiae) (UniProt Q06144)
Experiment: co-IP; non-denaturing immunoprecipitation of the substrate (FLAG-Hmx1, FLAG-Orm2^KR on anti-FLAG M2 beads; Yif1-HA on anti-HA beads) from yeast lysate solubilised with glyco-diosgenin, 4 °C, washes up to 300 mM NaCl; Western blot; WT cells, also ubx3Δ, dsc3Δ and tul1Δ cells

- binding: binds
B1: Dsc2 (rhomboid pseudo-protease subunit of the Dsc complex) (protein, UniProt Q08232 1-322)
chain: MSMEPPVGLTAMPVTKLAMITTLVVPLVASIASYKHIFLLQYDPFLQTYHQYYRLLIFQFCAINESDTVILALIWYLFRHLERLLGSHKYLTLIVLSWAYTTLGIWGLNLIWNAFIGQYKWLQWNNFSTGSLPIVLSLVHFYKEYTPQIYEWNIRLLGPRGGASSHNDNKREDKSAVEWKINDQFLLNGLILLLILNQGFAGILCGFISWMCGIFIDKGLLPGLDHWRIPFVSYFISQGPPTRANVAIAANAATNTAAARATVEAATAATGNGNTGNSGPTSLPLRGSSTTPTNTSSAGDDEPGADEPARPLGVQFLDTFRR

Results are given in words; binding and its absence hold for the method and conditions named. Binding seen in cells or lysates may run through a third protein. Binding calls can cover weak binding; strength is not graded here.
